Laboratory results from the supplement of paper PMC10849652.
The other results are listed elsewhere or left out. Residues, ends and D or L forms follow the SMILES beside them. *: point of attachment. Cbz = O=C(OCc1ccccc1)*

By UniProt entry, the sequences of proteins in these tests, tags left out. Where a name states a change or a piece, a line headed by the entry shows the natural chain unless it says otherwise.
UniProt Q9Y2S7: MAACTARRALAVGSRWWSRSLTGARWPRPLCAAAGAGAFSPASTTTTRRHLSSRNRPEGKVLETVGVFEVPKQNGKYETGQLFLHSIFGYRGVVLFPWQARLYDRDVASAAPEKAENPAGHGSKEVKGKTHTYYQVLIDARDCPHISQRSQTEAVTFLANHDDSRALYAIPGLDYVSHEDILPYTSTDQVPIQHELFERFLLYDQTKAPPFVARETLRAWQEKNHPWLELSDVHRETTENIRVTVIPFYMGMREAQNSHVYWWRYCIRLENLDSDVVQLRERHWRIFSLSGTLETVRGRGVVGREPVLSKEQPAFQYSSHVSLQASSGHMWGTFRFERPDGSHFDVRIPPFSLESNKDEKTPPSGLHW
UniProt P35813: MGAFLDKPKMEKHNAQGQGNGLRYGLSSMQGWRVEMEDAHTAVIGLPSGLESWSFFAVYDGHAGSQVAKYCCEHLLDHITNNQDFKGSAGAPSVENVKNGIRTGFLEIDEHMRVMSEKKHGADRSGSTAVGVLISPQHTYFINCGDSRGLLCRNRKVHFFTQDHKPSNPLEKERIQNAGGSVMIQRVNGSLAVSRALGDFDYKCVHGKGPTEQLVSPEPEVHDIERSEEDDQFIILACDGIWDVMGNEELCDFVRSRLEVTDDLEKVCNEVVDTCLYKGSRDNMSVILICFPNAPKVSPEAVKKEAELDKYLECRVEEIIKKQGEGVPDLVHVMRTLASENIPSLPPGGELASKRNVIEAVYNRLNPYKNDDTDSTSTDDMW
UniProt O60664: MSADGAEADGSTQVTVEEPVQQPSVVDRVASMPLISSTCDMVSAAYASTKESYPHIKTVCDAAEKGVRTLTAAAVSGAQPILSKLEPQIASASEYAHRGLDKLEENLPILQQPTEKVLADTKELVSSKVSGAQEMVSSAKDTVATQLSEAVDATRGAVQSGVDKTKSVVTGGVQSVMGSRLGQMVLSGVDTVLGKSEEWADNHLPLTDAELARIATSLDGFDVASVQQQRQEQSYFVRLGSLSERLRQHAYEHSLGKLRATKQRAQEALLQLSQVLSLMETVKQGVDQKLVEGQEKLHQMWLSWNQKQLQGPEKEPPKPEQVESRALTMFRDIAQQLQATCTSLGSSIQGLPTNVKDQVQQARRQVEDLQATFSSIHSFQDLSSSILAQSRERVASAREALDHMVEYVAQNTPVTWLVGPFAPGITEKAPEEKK
UniProt P00491: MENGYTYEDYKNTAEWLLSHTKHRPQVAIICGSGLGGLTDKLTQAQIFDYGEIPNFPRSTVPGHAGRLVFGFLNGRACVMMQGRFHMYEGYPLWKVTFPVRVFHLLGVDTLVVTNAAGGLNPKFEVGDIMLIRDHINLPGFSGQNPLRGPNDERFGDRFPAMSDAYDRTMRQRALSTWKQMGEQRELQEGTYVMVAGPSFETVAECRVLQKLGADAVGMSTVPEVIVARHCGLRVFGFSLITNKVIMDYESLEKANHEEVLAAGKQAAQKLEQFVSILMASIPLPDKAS
UniProt O15031: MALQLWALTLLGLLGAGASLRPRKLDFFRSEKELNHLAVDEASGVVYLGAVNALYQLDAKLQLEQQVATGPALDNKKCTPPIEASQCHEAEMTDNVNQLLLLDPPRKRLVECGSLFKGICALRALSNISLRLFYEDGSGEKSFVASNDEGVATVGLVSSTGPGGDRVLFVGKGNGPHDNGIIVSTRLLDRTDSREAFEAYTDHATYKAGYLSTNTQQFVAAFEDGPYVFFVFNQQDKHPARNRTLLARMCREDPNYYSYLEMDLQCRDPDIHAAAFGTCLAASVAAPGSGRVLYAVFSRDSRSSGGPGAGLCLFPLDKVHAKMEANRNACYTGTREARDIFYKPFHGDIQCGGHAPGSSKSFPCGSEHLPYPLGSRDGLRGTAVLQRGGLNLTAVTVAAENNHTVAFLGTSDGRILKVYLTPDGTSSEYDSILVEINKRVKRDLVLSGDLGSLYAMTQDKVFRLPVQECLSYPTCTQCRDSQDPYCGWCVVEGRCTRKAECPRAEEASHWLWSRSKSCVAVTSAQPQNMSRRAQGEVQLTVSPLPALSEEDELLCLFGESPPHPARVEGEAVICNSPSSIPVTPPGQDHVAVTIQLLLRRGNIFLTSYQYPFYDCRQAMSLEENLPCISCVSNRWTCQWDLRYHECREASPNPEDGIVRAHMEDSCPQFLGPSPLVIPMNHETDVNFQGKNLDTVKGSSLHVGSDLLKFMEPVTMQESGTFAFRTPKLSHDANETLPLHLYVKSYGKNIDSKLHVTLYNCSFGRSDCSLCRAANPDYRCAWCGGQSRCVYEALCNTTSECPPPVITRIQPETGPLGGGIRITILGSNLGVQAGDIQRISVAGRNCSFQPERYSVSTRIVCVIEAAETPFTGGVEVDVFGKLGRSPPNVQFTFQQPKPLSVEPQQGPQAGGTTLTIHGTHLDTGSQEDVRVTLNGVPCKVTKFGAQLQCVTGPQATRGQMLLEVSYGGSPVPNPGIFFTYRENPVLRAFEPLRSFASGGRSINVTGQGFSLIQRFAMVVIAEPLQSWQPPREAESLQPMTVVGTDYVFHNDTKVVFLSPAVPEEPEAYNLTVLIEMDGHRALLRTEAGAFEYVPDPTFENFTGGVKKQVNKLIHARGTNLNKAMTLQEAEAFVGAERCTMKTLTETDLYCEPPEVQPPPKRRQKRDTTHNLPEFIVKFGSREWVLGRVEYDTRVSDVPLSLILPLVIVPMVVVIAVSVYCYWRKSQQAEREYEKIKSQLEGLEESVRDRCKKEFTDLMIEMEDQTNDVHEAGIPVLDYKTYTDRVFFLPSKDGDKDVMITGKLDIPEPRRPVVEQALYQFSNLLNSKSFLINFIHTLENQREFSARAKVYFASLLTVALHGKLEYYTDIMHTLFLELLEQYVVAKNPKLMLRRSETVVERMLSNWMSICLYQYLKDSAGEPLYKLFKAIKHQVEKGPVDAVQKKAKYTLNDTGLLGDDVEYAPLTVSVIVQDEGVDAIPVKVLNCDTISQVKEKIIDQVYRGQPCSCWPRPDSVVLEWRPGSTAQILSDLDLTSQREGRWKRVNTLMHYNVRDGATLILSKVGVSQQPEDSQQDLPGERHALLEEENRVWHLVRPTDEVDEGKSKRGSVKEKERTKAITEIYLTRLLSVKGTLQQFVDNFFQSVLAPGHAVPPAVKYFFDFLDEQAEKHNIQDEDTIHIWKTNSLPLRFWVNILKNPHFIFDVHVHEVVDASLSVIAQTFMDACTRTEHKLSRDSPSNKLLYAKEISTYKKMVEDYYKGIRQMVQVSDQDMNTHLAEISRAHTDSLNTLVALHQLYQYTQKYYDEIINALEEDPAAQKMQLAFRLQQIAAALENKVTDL
UniProt P14859: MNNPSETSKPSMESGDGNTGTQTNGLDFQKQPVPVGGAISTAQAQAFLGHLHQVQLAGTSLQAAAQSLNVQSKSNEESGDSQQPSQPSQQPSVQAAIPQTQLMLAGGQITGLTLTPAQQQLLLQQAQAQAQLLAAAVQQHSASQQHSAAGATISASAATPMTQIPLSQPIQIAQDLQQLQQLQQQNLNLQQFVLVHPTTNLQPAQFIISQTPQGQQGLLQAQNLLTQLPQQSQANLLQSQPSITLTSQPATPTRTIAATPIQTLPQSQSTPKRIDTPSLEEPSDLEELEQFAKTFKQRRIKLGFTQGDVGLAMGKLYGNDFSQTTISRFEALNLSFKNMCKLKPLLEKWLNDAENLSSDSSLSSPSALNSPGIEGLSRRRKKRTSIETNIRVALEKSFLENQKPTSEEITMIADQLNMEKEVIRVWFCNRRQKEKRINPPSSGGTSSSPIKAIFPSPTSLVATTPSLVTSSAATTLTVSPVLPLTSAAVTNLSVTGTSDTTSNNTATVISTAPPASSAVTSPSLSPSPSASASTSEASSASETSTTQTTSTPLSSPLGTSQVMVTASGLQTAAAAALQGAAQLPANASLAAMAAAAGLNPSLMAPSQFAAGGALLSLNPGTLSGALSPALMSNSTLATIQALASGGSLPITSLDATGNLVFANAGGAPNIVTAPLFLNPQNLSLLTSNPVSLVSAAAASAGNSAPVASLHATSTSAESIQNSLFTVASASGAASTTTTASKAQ
UniProt Q13136: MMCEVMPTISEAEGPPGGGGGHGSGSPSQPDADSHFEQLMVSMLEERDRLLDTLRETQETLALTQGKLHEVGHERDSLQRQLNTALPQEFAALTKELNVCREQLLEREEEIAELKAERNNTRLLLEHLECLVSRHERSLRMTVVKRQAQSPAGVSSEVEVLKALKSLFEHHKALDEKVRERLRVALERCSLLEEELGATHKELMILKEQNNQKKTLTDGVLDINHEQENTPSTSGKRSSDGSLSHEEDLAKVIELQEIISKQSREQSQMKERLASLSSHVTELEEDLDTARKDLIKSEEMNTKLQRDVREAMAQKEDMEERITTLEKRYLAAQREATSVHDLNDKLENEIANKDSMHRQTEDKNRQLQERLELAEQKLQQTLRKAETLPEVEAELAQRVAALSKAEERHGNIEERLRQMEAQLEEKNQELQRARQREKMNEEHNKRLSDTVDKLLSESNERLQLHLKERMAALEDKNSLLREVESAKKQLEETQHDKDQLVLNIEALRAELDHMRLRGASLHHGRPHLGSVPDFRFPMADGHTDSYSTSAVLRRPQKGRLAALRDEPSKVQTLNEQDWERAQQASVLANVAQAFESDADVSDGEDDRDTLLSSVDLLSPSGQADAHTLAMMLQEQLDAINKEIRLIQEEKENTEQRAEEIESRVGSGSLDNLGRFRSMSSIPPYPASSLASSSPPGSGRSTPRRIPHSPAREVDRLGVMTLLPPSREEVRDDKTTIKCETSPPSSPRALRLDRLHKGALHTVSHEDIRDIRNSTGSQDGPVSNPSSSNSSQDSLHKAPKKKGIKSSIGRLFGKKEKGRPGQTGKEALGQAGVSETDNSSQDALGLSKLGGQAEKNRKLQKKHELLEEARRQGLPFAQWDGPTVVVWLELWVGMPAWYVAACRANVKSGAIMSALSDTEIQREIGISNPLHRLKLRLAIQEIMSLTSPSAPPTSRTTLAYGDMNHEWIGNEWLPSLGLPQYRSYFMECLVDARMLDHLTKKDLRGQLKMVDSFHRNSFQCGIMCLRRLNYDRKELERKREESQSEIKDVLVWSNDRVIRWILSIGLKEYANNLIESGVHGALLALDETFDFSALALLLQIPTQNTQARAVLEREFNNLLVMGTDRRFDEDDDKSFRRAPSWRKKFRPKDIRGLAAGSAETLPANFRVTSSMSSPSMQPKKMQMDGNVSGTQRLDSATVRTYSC
UniProt P13797: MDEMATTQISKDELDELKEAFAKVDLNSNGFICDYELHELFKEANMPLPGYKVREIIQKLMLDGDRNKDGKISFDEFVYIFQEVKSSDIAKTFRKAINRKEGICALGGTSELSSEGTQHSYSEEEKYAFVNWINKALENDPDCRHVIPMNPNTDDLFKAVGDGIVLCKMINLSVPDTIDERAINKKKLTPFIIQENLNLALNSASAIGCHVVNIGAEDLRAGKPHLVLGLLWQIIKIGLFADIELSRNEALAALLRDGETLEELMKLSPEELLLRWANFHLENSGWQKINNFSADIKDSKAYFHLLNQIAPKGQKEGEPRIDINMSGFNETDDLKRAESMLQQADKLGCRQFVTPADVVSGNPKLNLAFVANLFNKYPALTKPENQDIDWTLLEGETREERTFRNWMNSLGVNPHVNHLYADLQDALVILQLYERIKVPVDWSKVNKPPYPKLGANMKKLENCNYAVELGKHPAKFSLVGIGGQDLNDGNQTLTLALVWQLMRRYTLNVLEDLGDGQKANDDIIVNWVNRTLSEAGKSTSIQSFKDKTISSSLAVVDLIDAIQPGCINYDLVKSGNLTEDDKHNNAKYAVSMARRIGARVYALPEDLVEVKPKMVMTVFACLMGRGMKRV
UniProt Q14651: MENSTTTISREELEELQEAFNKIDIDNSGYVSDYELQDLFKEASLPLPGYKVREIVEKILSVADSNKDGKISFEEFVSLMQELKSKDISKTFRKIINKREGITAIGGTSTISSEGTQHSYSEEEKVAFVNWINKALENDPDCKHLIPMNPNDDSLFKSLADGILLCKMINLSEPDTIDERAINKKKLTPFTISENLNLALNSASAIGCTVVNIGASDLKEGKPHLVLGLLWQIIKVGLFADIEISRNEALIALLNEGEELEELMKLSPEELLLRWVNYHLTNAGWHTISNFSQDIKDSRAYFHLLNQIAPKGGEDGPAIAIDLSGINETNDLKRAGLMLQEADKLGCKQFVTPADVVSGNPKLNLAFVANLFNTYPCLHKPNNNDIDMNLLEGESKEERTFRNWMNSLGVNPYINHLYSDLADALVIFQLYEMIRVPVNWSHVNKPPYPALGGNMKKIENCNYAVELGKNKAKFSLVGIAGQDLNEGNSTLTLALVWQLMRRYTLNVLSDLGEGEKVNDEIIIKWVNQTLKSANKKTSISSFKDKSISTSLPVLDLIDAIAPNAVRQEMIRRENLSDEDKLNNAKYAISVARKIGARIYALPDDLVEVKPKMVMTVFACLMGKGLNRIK

What was measured:
Assay in all cases: log2 fold change, soluble protein after heating vs DMSO (PISA); higher = thermal stabilisation; K562 cells, 10 uM, 30 min; active = over 0.2 and 3.5 SD of the protein, either way, in both replicates (recomputed)
[1] = compound: C#Cc1cccc(Nc2ncnc3cc(OCCOC)c(OCCOC)cc23)c1 [erlotinib]
Summary of the method: (§1)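 K562 cells at 2×10^6 cells/mL were treated for 30 min with 10 μM compound, and aliquots were heated for 3 min over 48°C-58°C before pooling. Extraction used PBS with 0.5% NP-40 at 4°C, and soluble protein was the supernatant after 21,000xg for 90 min, measured by TMTpro 16plex LC-MS/MS with channel sums equalised. Thermal stability values, relative to control samples and from duplicates, are log2 fold changes.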

[2] = compound: C/C(=N\NC(=O)C1=CC(=CC=C1)S(=O)(=O)N2CCOCC2)/C3=C(C=CC(=C3)Cl)O
Summary of the method: as §1

[3] = compound: C1=CC(=C(C=C1Cl)C2=NC3=NC=CN=C3C(=N2)NC4=CC=NC=C4)F
Summary of the method: as §1

[4] = compound: C1=CC(=CC=C1C2=NC3=C(N2)C=C(C=C3)C(=O)N)OC4=CC=C(C=C4)Cl
Summary of the method: as §1

[5] = compound: C1=CC2=C(C=CC(=C2)/C=C\3/C(=O)NC(=NCC4=CC=CS4)S3)N=C1
Summary of the method: as §1

[6] = compound: C1=CC2=NC=CN=C2C=C1/C=C/3\C(=O)NC(=O)S3
Summary of the method: as §1

[7] = compound: C1=CC=C(C=C1)C2=NC(=C(N2)C3=CC=NC=C3)C4=CC(=C(C=C4)Cl)O
Summary of the method: as §1

[8] = compound: C1=CC=C2C(=C1)C3=NNC4=CC=CC(=C43)C2=O
Summary of the method: as §1

[9] = compound: C1CCN(C1)C(=O)NC2=CC=CC(=C2)NC3=NC=C(C(=N3)NCCC4=CN=CN4)Br
Summary of the method: as §1

[10] = compound: C1CN(CCC1(CC2=CC=C(C=C2)Cl)N)C3=NC=NC4=C3C=CN4
Summary of the method: as §1

[11] = compound: C1COCCN1CCN2C3=CC=CC=C3N=C2NC(=O)C4=CC(=CC=C4)[N+](=O)[O-] [IRAK-1-4 Inhibitor I]
Summary of the method: as §1

[12] = compound: C=CC(=O)N1CCC[C@@H](n2nc(-c3ccc(Oc4ccccc4)cc3)c3c(N)ncnc32)C1 [ibrutinib]
Summary of the method: as §1

[13] = compound: CC(=O)c1cnc2ccc(-c3cc(Cl)c(O)c(Cl)c3)nc2c1N[C@H]1CC[C@H](CN(C)C)CC1
Summary of the method: as §1

[14] = compound: CC(C)(C)Cn1c(N)nc2ccc(-c3[nH]c(C(C)(C)C)nc3-c3ccc(F)cc3)nc21 [ralimetinib]
Summary of the method: as §1

[15] = compound: CC(C)(O)CC(=O)NCCn1ccc2ncnc(Nc3ccc(Oc4cccc(C(F)(F)F)c4)c(Cl)c3)c21
Summary of the method: as §1

[16] = compound: CC(C)C1=C2N=C(C=C(N2N=C1)NCC3=CC=CC=C3)NCCCCCCN
Summary of the method: as §1

[17] = compound: CC(C)C[C@@H](C=O)NC(=O)[C@H](CC(C)C)NC(=O)[C@H](CC(C)C)NC(=O)OCc1ccccc1
Summary of the method: as §1

[18] = compound: CC(C)N(C[C@H]1O[C@@H](n2cnc3c(N)ncnc32)[C@H](O)[C@@H]1O)[C@H]1C[C@@H](CCc2nc3cc(C(C)(C)C)ccc3[nH]2)C1 [pinometostat]
Summary of the method: as §1

[19] = compound: CC1=C(C(CC(=O)N1)C2=CC=C(C=C2)C(F)(F)F)C(=O)NC3=C(C=C4C(=C3)C=NN4)F
Summary of the method: as §1

[20] = compound: CC1=C(C2=C(C=C1)C(=O)C3=CC=CC=C3N2CCCN)C
Summary of the method: as §1

Measured: log2 fold change

POLDIP2 (UniProt Q9Y2S7)
inactive: [1] 0.025 | [2] 0.057 | [3] 0.041 | [4] 0.027 | [5] 0.12 | [6] 0.01 | [7] -0.033 | [8] 0 | [9] -0.053 | [10] 0.022 | [11] 0.029 | [12] -0.016 | [13] -0.078 | [14] -0.045 | [15] -0.023 | [16] -0.009 | [17] -0.024 | [18] -0.027 | [19] -0.032 | [20] 0.032

PON2 (UniProt Q15165)
inactive: [1] -0.045 | [2] -0.065 | [3] 0.016 | [4] 0.004 | [5] -0.025 | [6] 0.022 | [7] -0.013 | [8] 0.037 | [9] 0.049 | [10] 0.046 | [11] 0.007 | [12] 0.022 | [13] -0.012 | [14] -0.092 | [15] -0.043 | [16] -0.016 | [17] 0.007 | [18] 0.037 | [19] 0.038 | [20] -0.023

PNO1 (UniProt Q9NRX1)
inactive: [1] 0.033 | [2] 0.025 | [3] -0.177 | [4] 0.071 | [5] -0.069 | [6] 0.044 | [7] -0.02 | [8] 0.059 | [9] 0.096 | [10] -0.377 | [11] -0.125 | [12] 0.002 | [13] 0.01 | [14] 0.185 | [15] 0 | [16] -0.072 | [17] 0.147 | [18] 0.192 | [19] 0.045 | [20] -0.345

Random excerpt: 2 records from the list.
PON2 (UniProt Q15165)
inactive: [1] -0.045 | [2] -0.065 | [3] 0.016 | [4] 0.004 | [5] -0.025 | [6] 0.022 | [7] -0.013 | [8] 0.037 | [9] 0.049 | [10] 0.046 | [11] 0.007 | [12] 0.022 | [13] -0.012 | [14] -0.092 | [15] -0.043 | [16] -0.016 | [17] 0.007 | [18] 0.037 | [19] 0.038 | [20] -0.023

PNO1 (UniProt Q9NRX1)
inactive: [1] 0.033 | [2] 0.025 | [3] -0.177 | [4] 0.071 | [5] -0.069 | [6] 0.044 | [7] -0.02 | [8] 0.059 | [9] 0.096 | [10] -0.377 | [11] -0.125 | [12] 0.002 | [13] 0.01 | [14] 0.185 | [15] 0 | [16] -0.072 | [17] 0.147 | [18] 0.192 | [19] 0.045 | [20] -0.345

(list continues)

PLEKHF2 (UniProt Q9H8W4)
inactive: [1] 0.099 | [2] 0.114 | [3] 0.046 | [4] 0 | [5] 0.054 | [6] 0 | [7] 0.029 | [8] -0.024 | [9] -0.035 | [10] 0.046 | [11] -0.048 | [12] 0.047 | [13] -0.134 | [14] 0 | [15] -0.034 | [16] -0.144 | [17] 0.052 | [18] -0.104 | [19] 0.055 | [20] 0.071

PPM1A isoform 3 (UniProt P35813)
inactive: [1] -0.015 | [2] 0.038 | [3] 0.024 | [4] 0.03 | [5] 0.045 | [6] -0.031 | [7] -0.022 | [8] -0.005 | [9] 0.032 | [10] -0.021 | [11] -0.003 | [12] -0.039 | [13] -0.07 | [14] -0.012 | [15] -0.132 | [16] -0.053 | [17] 0.049 | [18] -0.003 | [19] 0.009 | [20] -0.006

PLIN3 (UniProt O60664)
inactive: [1] 0.023 | [2] 0.029 | [3] 0.037 | [4] 0.014 | [5] 0.022 | [6] 0.006 | [7] 0.003 | [8] -0.016 | [9] -0.028 | [10] 0.013 | [11] 0.022 | [12] -0.008 | [13] 0.002 | [14] -0.001 | [15] -0.016 | [16] -0.05 | [17] -0.013 | [18] -0.04 | [19] 0.009 | [20] 0.02

PNP (UniProt P00491)
inactive: [1] -0.009 | [2] -0.008 | [3] 0.012 | [4] 0.003 | [5] -0.026 | [6] 0.027 | [7] -0.033 | [8] -0.021 | [9] 0.009 | [10] 0.055 | [11] 0.03 | [12] 0.038 | [13] -0.022 | [14] -0.05 | [15] 0.003 | [16] 0.073 | [17] -0.019 | [18] -0.032 | [19] 0.003 | [20] 0.011

PLXNB2 (UniProt O15031)
inactive: [1] 0.025 | [2] 0.018 | [3] 0.022 | [4] 0.003 | [5] 0.035 | [6] 0.016 | [7] -0.001 | [8] 0.005 | [9] -0.032 | [10] 0.043 | [11] -0.007 | [12] 0.025 | [13] -0.069 | [14] -0.006 | [15] -0.053 | [16] 0.003 | [17] 0.02 | [18] 0.058 | [19] -0.069 | [20] 0.084

POLD2 (UniProt P49005)
inactive: [1] -0.026 | [2] 0.019 | [3] 0.013 | [4] 0.006 | [5] 0.056 | [6] 0.019 | [7] -0.048 | [8] -0.03 | [9] -0.005 | [10] -0.018 | [11] 0.014 | [12] -0.027 | [13] -0.062 | [14] 0.087 | [15] -0.028 | [16] -0.054 | [17] 0.018 | [18] -0.017 | [19] 0.013 | [20] -0.007

POFUT1 (UniProt Q9H488)
inactive: [1] -0.043 | [2] 0.045 | [3] 0.013 | [4] -0.003 | [5] -0.051 | [6] 0.011 | [7] 0.041 | [8] 0 | [9] 0.086 | [10] -0.015 | [11] 0.032 | [12] 0.02 | [13] 0.014 | [14] -0.042 | [15] -0.006 | [16] 0.076 | [17] 0.13 | [18] 0.024 | [19] -0.01 | [20] 0.427

POU2F1 isoform 6 (UniProt P14859)
inactive: [1] 0.107 | [2] 0.065 | [3] 0.214 | [4] -0.048 | [5] 0.029 | [6] 0.05 | [7] 0.019 | [8] -0.042 | [9] -0.042 | [10] -0.036 | [11] 0.007 | [12] -0.086 | [13] 0.004 | [14] 0.06 | [15] -0.154 | [16] -0.168 | [17] -0.059 | [18] -0.021 | [19] 0.02 | [20] -0.232

POLR2H (UniProt P52434)
inactive: [1] 0.023 | [2] -0.007 | [3] -0.001 | [4] 0.025 | [5] 0.043 | [6] 0.074 | [7] -0.034 | [8] 0.002 | [9] 0.005 | [10] -0.073 | [11] 0.016 | [12] 0.012 | [13] 0.102 | [14] 0.048 | [15] -0.071 | [16] -0.024 | [17] 0.048 | [18] 0.039 | [19] -0.008 | [20] 0.037

PPFIA1 (UniProt Q13136)
inactive: [1] 0.003 | [2] 0.119 | [3] 0.004 | [4] 0.067 | [5] 0.008 | [6] 0.119 | [7] -0.105 | [8] -0.003 | [9] 0.104 | [10] 0.098 | [11] -0.072 | [12] -0.131 | [13] -0.166 | [14] 0.045 | [15] -0.067 | [16] -0.136 | [17] 0.119 | [18] 0.067 | [19] 0.123 | [20] 0.184

PLS3 (UniProt P13797)
inactive: [1] 0.01 | [2] -0.043 | [3] 0.014 | [4] -0.018 | [5] 0.043 | [6] -0.006 | [7] -0.085 | [8] -0.032 | [9] 0.011 | [10] 0.021 | [11] 0.012 | [12] -0.016 | [13] -0.029 | [14] -0.105 | [15] 0.007 | [16] 0 | [17] 0.031 | [18] -0.03 | [19] 0.023 | [20] -0.027

PNPLA6 (UniProt Q8IY17)
inactive: [1] 0 | [2] 0.027 | [3] 0.062 | [4] 0.264 | [5] -0.009 | [6] 0.024 | [7] -0.036 | [8] 0.003 | [9] 0 | [10] -0.008 | [11] -0.054 | [12] 0.019 | [13] -0.066 | [14] 0.101 | [15] -0.179 | [16] -0.006 | [17] 0.013 | [18] 0.085 | [19] 0.043 | [20] 0.075

PLS1 (UniProt Q14651)
inactive: [1] 0.009 | [2] 0.105 | [3] 0.05 | [4] 0.004 | [5] 0.084 | [6] 0.027 | [7] -0.015 | [8] 0.003 | [9] -0.004 | [10] -0.015 | [11] 0.028 | [12] -0.027 | [13] -0.045 | [14] -0.019 | [15] -0.03 | [16] -0.002 | [17] 0.009 | [18] 0.004 | [19] 0.001 | [20] 0.048
